Data from PMC2363545.

Molecular target: IGF2R domains 10-13
Assay: SPR; BIAcore; who was immobilised, buffer, pH and temperature not stated (abstract P25)

binding: no binding
B1: -glucuronidase (beta-glucuronidase; the Greek letter is lost in the text shown) (enzyme, UniProt P08236 23-651)
chain: LQGGMLYPQESPSRECKELDGLWSFRADFSDNRRRGFEEQWYRRPLWESGPTVDMPVPSSFNDISQDWRLRHFVGWVWYEREVILPERWTQDLRTRVVLRIGSAHSYAIVWVNGVDTLEHEGGYLPFEADISNLVQVGPLPSRLRITIAINNTLTPTTLPPGTIQYLTDTSKYPKGYFVQNTYFDFFNYAGLQRSVLLYTTPTTYIDDITVTTSVEQDSGLVNYQISVKGSNLFKLEVRLLDAENKVVANGTGTQGQLKVPGVSLWWPYLMHERPAYLYSLEVQLTAQTSLGPVSDFYTLPVGIRTVAVTKSQFLINGKPFYFHGVNKHEDADIRGKGFDWPLLVKDFNLLRWLGANAFRTSHYPYAEEVMQMCDRYGIVVIDECPGVGLALPQFFNNVSLHHHMQVMEEVVRRDKNHPAVVMWSVANEPASHLESAGYYLKMVIAHTKSLDPSRPVTFVSNSNYAADKGAPYVDVICLNSYYSWYHDYGHLELIQLQLATQFENWYKKYQKPIIQSEYGAETIAGFHQDPPLMFTEEYQKSLLEQYHLGLDQKRRKYVVGELIWNFADFMTEQSPTRVLGNKKGIFTRQRQPKSAAFLLRERYWKIANETRYPHSVAKSQCLENSLFT

Results are given in words; binding and its absence hold for the method and conditions named. Sequences can lack the tags named with a protein.
